Laboratory results as given in paper PMC3937215.
No constants are given. Whether binding was seen depends on the method and setting. Binding seen in cells or lysates may run through a third protein. Some binding calls cover weakened binding; strength is not graded here.

Molecular target: cyclin-dependent-kinase 2 (mouse (endogenous in testis)) (UniProt P97377)
Experiment: co-IP; pre-cleared lysate incubated with mouse anti-CDK2 (D-12) or IgG control, 4 h, 4°C; protein A agarose beads overnight; washed four times in 20 mM Tris pH 8.0, 150 mM NaCl, 0.1% NP40; blotted for cyclin E1 and cyclin E2

binding: binds
Substance: cyclin E2 (from UniProt Q9Z238 1-404)
